Values quoted from earlier work in patent US20050208156A1, “Plants extracts and the use thereof” (Lichtwer Pharma GmbH, priority 2002, published 2005).
At least one structure is not confirmed: it was looked up by name or label, or the drawing left a doubt.

Tested on: thought disorders owing to the administration of ketamine
Details: in vivo

Cc1cc2c(s1)Nc1ccccc1N=C2N1CCN(C)CC1 [olanzapine]
Effect on ketamine-induced thought disorders: reduced
